From PubChem BioAssay AID1347426 (Functional Genomics Laboratory (NCATS/FGL), 2020)
The whole screen tested about 31,000 sequences, of which about 1,400 (4.5%) were called active.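 How the source made its calls: active means median seed-adjusted z-score above 1 or below -1; inactive means the rest.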 The list shows a part of the results.

Assay: Novel Modifiers of Survival Motor Neuron (SMN) Protein: Gene Identification via Genome-wide siRNA Screen;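 further: luminescence tracks full-length SMN protein made from the SMN2 reporter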
Conditions: HEK293T SMN2-luciferase reporter, siRNA knockdown, 72 h; actives lie on both sides
Outline: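 HEK293T cells stably carrying an SMN2 promoter/splicing cassette–luciferase reporter were reverse-transfected with 1 pmol siRNA per well (druggable-genome library, 3 siRNAs per gene) and grown 72 h at 37 °C. Luminescence, normalized to negative-control siRNA and log10-transformed, was scored as MAD.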

Sequence | median seed-adjusted z-score
GGACCUUGGUCUUUCCUUGTT against HFE | inactive: -0.677
GCGUGAACCCUGUAUGGAATT against DYSF | inactive: -0.23
GGACUACAAAGGUUCUCGATT against CDH18 | inactive: 0.21
GGAUGAGAAUGUUGCGCAUTT against ITGA4 | inactive: 0
GAACGAAAAAGCAUGCACATT against PFDN1 | inactive: 0.212
UGAGUUAACUAGACCUCAATT against ZNF284 | inactive: 0.21
GCAUGUUCGUGGAGAACAATT against GPRC5C | inactive: 0.498
GGCUGUAACUUGAGUACUUTT against MTERF | inactive: 0.432
AGGAGAAUGUGAUCCGAGATT against TXNDC14 | active: -2.39
GCGCCUUCCGAAAAGGACATT against SKI | inactive: -0.139
GGUCCUUGCUUAACCAGGATT against NRIP1 | inactive: 0.789
CUACGUGUAUUAUUGCGCATT against PSAT1 | inactive: -0.706
AGCGAGGGUUUUCAAUGAATT against NOG | inactive: 0.328
GAGUUCAUCUCGGAAUGCATT against MB | inactive: 0.504
ACAUGAGAAUGAUGCUGCUTT against LOXL4 | inactive: -0.591
GCAACAACCGGGUGAGAGATT against RHPN1 | inactive: 0.161
GCAUCUCGAGGGACUGUAATT against SCN11A | inactive: 0.196
CAAGUUUAAGGAAACUGAATT against CRY2 | inactive: 0.0209
CGAAAACUGAUACACUUGATT against KSR2 | inactive: -0.371
GGAUCUGCCUGGUACAACUTT against ARIH1 | inactive: -0.443
AGACGAAGGUUAUUGAUCATT against RBP2 | inactive: 0.0132
GGCUAUUACGACUACAACATT against FOXRED1 | inactive: 0.447
GUGUAGUCCCAAUCUCUAATT against WFDC3 | inactive: -0.644
GCAUUGGGAAGAUACUGGATT against GALNS | inactive: 0.0287
GCCUUGAUCAUCAAACUCATT against KCNK17 | inactive: -0.579
GCAUACAUAUGGUAUAGCATT against DDX20 | inactive: -0.0137
GAGAUUACAUCAUUAGAGATT against PRKG2 | inactive: 0.272
GGAACUUCCAUGCCUCUAATT against ATP5A1 | inactive: -0.974
GAACAUCGCCGCAUCCACATT against ZNF574 | inactive: -0.528
GGAUCCCAAUUCUGGGUAATT against DOK1 | inactive: 0.0532

Part of the list above in another layout.
GGCUGUAACUUGAGUACUUTT against MTERF
  median seed-adjusted z-score: inactive: 0.432
GGCUAUUACGACUACAACATT against FOXRED1
  median seed-adjusted z-score: inactive: 0.447
